# Some of the results follow.
# How the values were obtained:
# Test in all cases: glycan array binding signal (z-score within array); higher = stronger binding
# Settings in all cases: glycan notation: IUPAC condensed, linker removed
# Gal3S(b1-4)Glc = biological target: Gal3S(b1-4)Glc
# Method in brief: (§1)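 From the Consortium for Functional Glycomics database, 3228 arrays were curated, keeping only those whose protein sequence was available. Binding is given as a within-array Z-score averaged across arrays sharing a protein sequence and across linkers. Negative Z-scores can be read as non-binding.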
# Gal3S(b1-4)Glc6S = biological target: Gal3S(b1-4)Glc6S
# Method in brief: as §1
# Gal3S(b1-4)GlcNAc = biological target: Gal3S(b1-4)GlcNAc
# Method in brief: as §1
# [1] = biological target: Gal3S(b1-4)[Fuc(a1-3)]Glc6S
# Method in brief: as §1
# [2] = biological target: Gal3S(b1-4)[Fuc(a1-3)]GlcNAc
# Method in brief: as §1
# [3] = biological target: Gal3S(b1-4)[Fuc(a1-3)]GlcNAc6S
# Method in brief: as §1
# Gal3S4S(b1-4)GlcNAc = biological target: Gal3S4S(b1-4)GlcNAc
# Method in brief: as §1
# Gal3S6S(b1-4)GlcNAc = biological target: Gal3S6S(b1-4)GlcNAc
# Method in brief: as §1
# Gal3S6S(b1-4)GlcNAc6S = biological target: Gal3S6S(b1-4)GlcNAc6S
# Method in brief: as §1
# Gal4S(b1-4)GlcNAc = biological target: Gal4S(b1-4)GlcNAc
# Method in brief: as §1
# Gal4S6S(b1-4)GlcNAc = biological target: Gal4S6S(b1-4)GlcNAc
# Method in brief: as §1
# Gal6P(b1-4)GlcNAc = biological target: Gal6P(b1-4)GlcNAc
# Method in brief: as §1
# Gal6S(b1-3)GlcNAc = biological target: Gal6S(b1-3)GlcNAc
# Method in brief: as §1
# Gal6S(b1-3)GlcNAc6S = biological target: Gal6S(b1-3)GlcNAc6S
# Method in brief: as §1
# Gal6S(b1-4)Glc = biological target: Gal6S(b1-4)Glc
# Method in brief: as §1
# Gal6S(b1-4)Glc6S = biological target: Gal6S(b1-4)Glc6S
# Method in brief: as §1
# Gal6S(b1-4)GlcNAc = biological target: Gal6S(b1-4)GlcNAc
# Method in brief: as §1
# Gal6S(b1-4)GlcNAc6S = biological target: Gal6S(b1-4)GlcNAc6S
# Method in brief: as §1
# GalNAc(a1-3)Gal = biological target: GalNAc(a1-3)Gal
# Method in brief: as §1
# GalNAc(a1-3)GalNAc = biological target: GalNAc(a1-3)GalNAc
# Method in brief: as §1
# [4] = biological target: GalNAc(a1-3)GalNAc(b1-3)Gal(a1-4)Gal(b1-4)Glc
# Method in brief: as §1
# [5] = biological target: GalNAc(a1-3)GalNAc(b1-3)Gal(a1-4)Gal(b1-4)GlcNAc
# Method in brief: as §1
# GalNAc(b1-3)Gal = biological target: GalNAc(b1-3)Gal
# Method in brief: as §1
# [6] = biological target: GalNAc(b1-3)Gal(a1-4)Gal(b1-4)GlcNAc
# Method in brief: as §1
# [7] = biological target: GalNAc(b1-3)Gal(a1-4)Gal(b1-4)GlcNAc(b1-3)Gal(b1-4)Glc
# Method in brief: as §1
# [8] = biological target: GalNAc(b1-3)Gal(a1-6)Gal(b1-4)Glc
# Method in brief: as §1
# GalNAc(b1-3)GalNAc = biological target: GalNAc(b1-3)GalNAc
# Method in brief: as §1
# GalNAc(b1-3)GlcNAc = biological target: GalNAc(b1-3)GlcNAc
# Method in brief: as §1
# GalNAc(b1-4)Gal(b1-4)Glc = biological target: GalNAc(b1-4)Gal(b1-4)Glc
# Method in brief: as §1
# GalNAc(b1-4)GlcNAc = biological target: GalNAc(b1-4)GlcNAc
# Method in brief: as §1
# [9] = biological target: GalNAc(b1-4)GlcNAc(b1-2)Man
# Method in brief: as §1
# [10] = biological target: GalNAc(b1-4)GlcNAc(b1-2)Man(a1-3)[GalNAc(b1-4)GlcNAc(b1-2)Man(a1-6)]Man(b1-4)GlcNAc(b1-4)GlcNAc
# Method in brief: as §1
# [11] = biological target: GalNAc(b1-4)GlcNAc(b1-3)GalNAc(b1-4)GlcNAc
# Method in brief: as §1
# GalNAc(b1-4)GlcNAc6S = biological target: GalNAc(b1-4)GlcNAc6S
# Method in brief: as §1
# GalNAc(b1-6)GalNAc = biological target: GalNAc(b1-6)GalNAc
# Method in brief: as §1
# GalNAc3S(b1-4)GlcNAc = biological target: GalNAc3S(b1-4)GlcNAc
# Method in brief: as §1
# GalNAc3S(b1-4)GlcNAc3S = biological target: GalNAc3S(b1-4)GlcNAc3S
# Method in brief: as §1
binder,measurement,setting,value
Gs78B-bfa-542-29-542 (Bacteroides fragilis) (protein) SEDINRNPLLPTKEDEKMDGVIYGAYLPNLEKSVIPIGTASESTEPVNRYQIGVNLAGDAWAGYMSPRDNKFNGSKNFTNYFMYENWVNYVYSFMVTDVYSPWMQIKRISQDEGTRNDEIYALAQIIKIAALHRTTDMFGPIPYSQVGKGSFKVAYDSQESVYRSFLKELEEAVQTLDDYSNKSKEVLPAFDIVYNGDVNKWMRFANSLMLRLAIRVRFADAGLAKEYAEKAVKHPAGLINSKELAAQMGKGAGLQMKNPLKVINEEYNDTRMGATIYSYLAGYNDARAAVYFVKNNGFKAVRCGIAKSGDAYNGFTRPNVHEDDPLYWMKASEVCFLKAEGALAGFDMGGSAGDFYNAGIRMSFSENGLDNSSAETYLKDSTRKPANYTDTSNGELSANAPSSITIRWENGATEEEKLERIITQKYLAIFPNGQEAWTEWRRTGYPRQIVVAENKTNSAVLIGNGYDLGGVRRLPYPRTEYEQNGENLHNAISQYLGGVDNAATKVWWDKKSK,glycan array binding signal (z-score),Gal3S(b1-4)Glc,-0.33
same,glycan array binding signal (z-score),Gal3S(b1-4)Glc6S,-0.778
same,glycan array binding signal (z-score),Gal3S(b1-4)GlcNAc,-0.715
same,glycan array binding signal (z-score),[1],0.757
same,glycan array binding signal (z-score),[2],-0.801
same,glycan array binding signal (z-score),[3],-0.473
same,glycan array binding signal (z-score),Gal3S4S(b1-4)GlcNAc,-0.708
same,glycan array binding signal (z-score),Gal3S6S(b1-4)GlcNAc,-0.768
same,glycan array binding signal (z-score),Gal3S6S(b1-4)GlcNAc6S,-0.34
same,glycan array binding signal (z-score),Gal4S(b1-4)GlcNAc,-0.815
same,glycan array binding signal (z-score),Gal4S6S(b1-4)GlcNAc,-0.811
same,glycan array binding signal (z-score),Gal6P(b1-4)GlcNAc,-0.588
same,glycan array binding signal (z-score),Gal6S(b1-3)GlcNAc,-0.563
same,glycan array binding signal (z-score),Gal6S(b1-3)GlcNAc6S,-0.469
same,glycan array binding signal (z-score),Gal6S(b1-4)Glc,0.825
same,glycan array binding signal (z-score),Gal6S(b1-4)Glc6S,0.798
same,glycan array binding signal (z-score),Gal6S(b1-4)GlcNAc,-0.419
same,glycan array binding signal (z-score),Gal6S(b1-4)GlcNAc6S,-0.819
same,glycan array binding signal (z-score),GalNAc(a1-3)Gal,0.12
same,glycan array binding signal (z-score),GalNAc(a1-3)GalNAc,-0.59
same,glycan array binding signal (z-score),[4],0.06
same,glycan array binding signal (z-score),[5],1
same,glycan array binding signal (z-score),GalNAc(b1-3)Gal,-0.448
same,glycan array binding signal (z-score),[6],0.47
same,glycan array binding signal (z-score),[7],1.12
same,glycan array binding signal (z-score),[8],-0.669
same,glycan array binding signal (z-score),GalNAc(b1-3)GalNAc,-0.725
same,glycan array binding signal (z-score),GalNAc(b1-3)GlcNAc,1.69
same,glycan array binding signal (z-score),GalNAc(b1-4)Gal(b1-4)Glc,1.04
same,glycan array binding signal (z-score),GalNAc(b1-4)GlcNAc,0.601
same,glycan array binding signal (z-score),[9],0.473
same,glycan array binding signal (z-score),[10],2.17
same,glycan array binding signal (z-score),[11],0.468
same,glycan array binding signal (z-score),GalNAc(b1-4)GlcNAc6S,0.909
same,glycan array binding signal (z-score),GalNAc(b1-6)GalNAc,-0.828
same,glycan array binding signal (z-score),GalNAc3S(b1-4)GlcNAc,-0.564
same,glycan array binding signal (z-score),GalNAc3S(b1-4)GlcNAc3S,-0.813

# Some of the entries so far, with bars between the fields.
binder | measurement | setting | value
Gs78B-bfa-542-29-542 (Bacteroides fragilis) (protein) SEDINRNPLLPTKEDEKMDGVIYGAYLPNLEKSVIPIGTASESTEPVNRYQIGVNLAGDAWAGYMSPRDNKFNGSKNFTNYFMYENWVNYVYSFMVTDVYSPWMQIKRISQDEGTRNDEIYALAQIIKIAALHRTTDMFGPIPYSQVGKGSFKVAYDSQESVYRSFLKELEEAVQTLDDYSNKSKEVLPAFDIVYNGDVNKWMRFANSLMLRLAIRVRFADAGLAKEYAEKAVKHPAGLINSKELAAQMGKGAGLQMKNPLKVINEEYNDTRMGATIYSYLAGYNDARAAVYFVKNNGFKAVRCGIAKSGDAYNGFTRPNVHEDDPLYWMKASEVCFLKAEGALAGFDMGGSAGDFYNAGIRMSFSENGLDNSSAETYLKDSTRKPANYTDTSNGELSANAPSSITIRWENGATEEEKLERIITQKYLAIFPNGQEAWTEWRRTGYPRQIVVAENKTNSAVLIGNGYDLGGVRRLPYPRTEYEQNGENLHNAISQYLGGVDNAATKVWWDKKSK | glycan array binding signal (z-score) | Gal6S(b1-4)GlcNAc | -0.419
same | glycan array binding signal (z-score) | [11] | 0.468
same | glycan array binding signal (z-score) | GalNAc(b1-4)GlcNAc6S | 0.909
